{"source": "patent US20260166125A1", "about": "“NLRP12 AND NLRC5 MODULATORS AND METHODS FOR USING THE SAME TO MODULATE DISEASES” (St. Jude Children's Research Hospital, Inc., priority 2022, published 2026)", "tested_on": "bone marrow-derived macrophages (BMDMs)", "assay": "Real-time imaging for cell death (propidium iodide incorporation, IncuCyte)", "format": "cell-based, mouse", "conditions": "WT BMDMs; stimuli alone or combined; 48 hours (FIG. 1, FIG. 2)", "description": "Bone Marrow-Derived Macrophages (BMDMs). Primary mouse BMDMs from wild-type and indicated mutant mice were grown for 6 days in Iscove's Modified Dulbecco's Medium (IMDM; Thermo Fisher Scientific) supplemented with 10% Fetal Bovine Serum (Biowest), 30% L929-conditioned media, 1% non-essential amino acids (Thermo Fisher Scientific) and 1% penicillin and streptomycin (Thermo Fisher Scientific). BMDMs at a density of 1×10^6 cells/well in 12-well plates or 5×10^5 cells/well in 24-well plates were seeded into growth media overnight before use.\nCell Stimulation. […]\nReal-Time Imaging for Cell Death. The kinetics of cell death were monitored using the IncuCyte S3 or SX5 (Sartorius) live-cell analysis system. […] Cell death was measured by propidium iodide (PI; Life Technologies) incorporation following the manufacturer's protocol. […] PI-positive dead cells are marked with a red mask and were quantified using the software package supplied with the IncuCyte imager.", "note": "For at least one compound, name, drawing or mass did not settle the structure."}
{"smiles": "CCOCc1nc2c(N)nc3ccccc3c2n1CC(C)(C)O", "note": "[R848, Resiquimod]", "values": [{"measurement": "cell death", "value": "Minimal cell death"}]}
